Some of the results follow.
Columns and labels:
Test in all cases: log2 fold change, soluble protein after heating vs DMSO (PISA); higher = thermal stabilisation; K562 lysate, 10 uM; active = over 0.2 and 3.5 SD of the protein, either way, in both replicates (recomputed)
[1] = compound: Cc1sc2c(c1C)C(c1ccc(Cl)cc1)=N[C@@H](CC(=O)OC(C)(C)C)c1nnc(C)n1-2
Method in brief: (§1)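 Dounce homogenisation of K562 pellets in PBS pH 7.4 with 1 mM MgCl2 produced a crude extract, used at 1 mg/mL protein. Exposure to 10 μM compound lasted 30 min, and aliquots were then heated for 3 min across 48°C-58°C, pooled and brought to 0.5% NP-40 at 4°C. The supernatant after 21,000xg for 90 min was quantified by TMTpro 16plex LC-MS/MS with channel sums equalised. Duplicate values are given as log-two fold change in thermal stability relative to solvent controls.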

Amino acid sequences for entries named in this document (tags omitted). A change or cut given only in a name is not applied to a line headed by its entry.
UniProt Q6JQN1: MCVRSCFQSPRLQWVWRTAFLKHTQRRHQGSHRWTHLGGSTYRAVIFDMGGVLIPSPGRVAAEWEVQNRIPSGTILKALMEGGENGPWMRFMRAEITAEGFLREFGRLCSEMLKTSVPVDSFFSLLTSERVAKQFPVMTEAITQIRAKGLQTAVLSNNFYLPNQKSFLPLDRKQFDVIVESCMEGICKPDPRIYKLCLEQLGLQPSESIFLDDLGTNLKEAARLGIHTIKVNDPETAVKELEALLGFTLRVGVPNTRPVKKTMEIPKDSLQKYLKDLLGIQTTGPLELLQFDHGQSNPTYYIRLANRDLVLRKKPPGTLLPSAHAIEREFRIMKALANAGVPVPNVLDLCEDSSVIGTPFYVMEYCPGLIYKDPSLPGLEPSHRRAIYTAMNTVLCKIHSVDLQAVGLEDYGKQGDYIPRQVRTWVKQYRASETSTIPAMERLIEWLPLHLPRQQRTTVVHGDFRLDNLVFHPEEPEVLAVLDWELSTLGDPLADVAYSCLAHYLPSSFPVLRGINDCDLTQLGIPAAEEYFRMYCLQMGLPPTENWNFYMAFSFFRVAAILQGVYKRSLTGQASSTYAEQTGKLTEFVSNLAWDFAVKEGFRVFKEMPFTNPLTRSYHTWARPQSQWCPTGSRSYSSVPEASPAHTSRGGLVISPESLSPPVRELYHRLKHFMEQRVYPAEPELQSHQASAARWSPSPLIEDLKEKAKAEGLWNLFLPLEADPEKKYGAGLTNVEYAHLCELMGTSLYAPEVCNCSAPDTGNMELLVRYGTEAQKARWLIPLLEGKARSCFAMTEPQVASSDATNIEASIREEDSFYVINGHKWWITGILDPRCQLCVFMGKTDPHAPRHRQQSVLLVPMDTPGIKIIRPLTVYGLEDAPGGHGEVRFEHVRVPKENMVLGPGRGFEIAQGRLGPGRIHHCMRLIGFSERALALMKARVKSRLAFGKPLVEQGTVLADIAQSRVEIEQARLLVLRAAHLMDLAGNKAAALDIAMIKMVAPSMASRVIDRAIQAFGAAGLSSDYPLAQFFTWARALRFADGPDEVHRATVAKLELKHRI
UniProt P24752: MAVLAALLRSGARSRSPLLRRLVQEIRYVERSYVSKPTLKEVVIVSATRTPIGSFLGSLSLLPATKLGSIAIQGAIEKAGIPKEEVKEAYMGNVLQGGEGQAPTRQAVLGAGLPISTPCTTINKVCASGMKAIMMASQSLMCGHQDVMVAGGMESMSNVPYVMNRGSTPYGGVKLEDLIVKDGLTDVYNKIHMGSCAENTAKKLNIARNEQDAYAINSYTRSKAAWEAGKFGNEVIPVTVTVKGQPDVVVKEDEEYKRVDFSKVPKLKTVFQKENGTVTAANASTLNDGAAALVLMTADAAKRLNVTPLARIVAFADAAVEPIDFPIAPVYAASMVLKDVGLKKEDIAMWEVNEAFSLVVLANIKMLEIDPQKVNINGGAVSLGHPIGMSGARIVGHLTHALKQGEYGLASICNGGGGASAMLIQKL
UniProt Q9BR61: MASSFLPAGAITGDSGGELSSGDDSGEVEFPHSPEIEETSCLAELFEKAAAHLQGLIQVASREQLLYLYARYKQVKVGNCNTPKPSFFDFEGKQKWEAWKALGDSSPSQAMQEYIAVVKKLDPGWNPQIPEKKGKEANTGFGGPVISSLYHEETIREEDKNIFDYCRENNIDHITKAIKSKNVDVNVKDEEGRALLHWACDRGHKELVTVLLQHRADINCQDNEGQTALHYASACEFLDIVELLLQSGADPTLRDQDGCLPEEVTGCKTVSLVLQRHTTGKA
UniProt Q8N961, whole entry, looked up: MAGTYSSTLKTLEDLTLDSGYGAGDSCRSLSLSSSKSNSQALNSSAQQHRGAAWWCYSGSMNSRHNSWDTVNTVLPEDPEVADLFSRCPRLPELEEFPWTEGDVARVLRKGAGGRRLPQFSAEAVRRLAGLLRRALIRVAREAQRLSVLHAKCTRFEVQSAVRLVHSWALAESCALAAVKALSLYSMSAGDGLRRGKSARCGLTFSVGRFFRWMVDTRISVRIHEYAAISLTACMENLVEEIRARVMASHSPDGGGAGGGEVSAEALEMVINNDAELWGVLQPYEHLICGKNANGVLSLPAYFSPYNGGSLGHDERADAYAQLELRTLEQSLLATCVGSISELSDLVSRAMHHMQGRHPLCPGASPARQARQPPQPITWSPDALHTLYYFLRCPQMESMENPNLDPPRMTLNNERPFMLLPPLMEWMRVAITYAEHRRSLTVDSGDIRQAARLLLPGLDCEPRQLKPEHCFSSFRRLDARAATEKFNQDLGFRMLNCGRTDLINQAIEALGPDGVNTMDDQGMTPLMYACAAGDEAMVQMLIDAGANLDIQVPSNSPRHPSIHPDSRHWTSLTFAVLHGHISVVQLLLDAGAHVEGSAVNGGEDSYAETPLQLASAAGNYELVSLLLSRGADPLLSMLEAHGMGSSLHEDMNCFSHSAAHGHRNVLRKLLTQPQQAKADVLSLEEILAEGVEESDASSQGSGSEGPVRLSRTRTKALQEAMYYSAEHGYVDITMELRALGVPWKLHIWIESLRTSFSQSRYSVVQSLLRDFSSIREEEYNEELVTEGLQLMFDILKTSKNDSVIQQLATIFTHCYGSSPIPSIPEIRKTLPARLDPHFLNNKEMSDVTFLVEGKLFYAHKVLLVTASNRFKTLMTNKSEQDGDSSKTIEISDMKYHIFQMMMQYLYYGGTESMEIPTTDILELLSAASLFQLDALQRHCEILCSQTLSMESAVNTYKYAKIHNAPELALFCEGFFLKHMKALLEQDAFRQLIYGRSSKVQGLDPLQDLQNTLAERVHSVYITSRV
UniProt Q5T3U5: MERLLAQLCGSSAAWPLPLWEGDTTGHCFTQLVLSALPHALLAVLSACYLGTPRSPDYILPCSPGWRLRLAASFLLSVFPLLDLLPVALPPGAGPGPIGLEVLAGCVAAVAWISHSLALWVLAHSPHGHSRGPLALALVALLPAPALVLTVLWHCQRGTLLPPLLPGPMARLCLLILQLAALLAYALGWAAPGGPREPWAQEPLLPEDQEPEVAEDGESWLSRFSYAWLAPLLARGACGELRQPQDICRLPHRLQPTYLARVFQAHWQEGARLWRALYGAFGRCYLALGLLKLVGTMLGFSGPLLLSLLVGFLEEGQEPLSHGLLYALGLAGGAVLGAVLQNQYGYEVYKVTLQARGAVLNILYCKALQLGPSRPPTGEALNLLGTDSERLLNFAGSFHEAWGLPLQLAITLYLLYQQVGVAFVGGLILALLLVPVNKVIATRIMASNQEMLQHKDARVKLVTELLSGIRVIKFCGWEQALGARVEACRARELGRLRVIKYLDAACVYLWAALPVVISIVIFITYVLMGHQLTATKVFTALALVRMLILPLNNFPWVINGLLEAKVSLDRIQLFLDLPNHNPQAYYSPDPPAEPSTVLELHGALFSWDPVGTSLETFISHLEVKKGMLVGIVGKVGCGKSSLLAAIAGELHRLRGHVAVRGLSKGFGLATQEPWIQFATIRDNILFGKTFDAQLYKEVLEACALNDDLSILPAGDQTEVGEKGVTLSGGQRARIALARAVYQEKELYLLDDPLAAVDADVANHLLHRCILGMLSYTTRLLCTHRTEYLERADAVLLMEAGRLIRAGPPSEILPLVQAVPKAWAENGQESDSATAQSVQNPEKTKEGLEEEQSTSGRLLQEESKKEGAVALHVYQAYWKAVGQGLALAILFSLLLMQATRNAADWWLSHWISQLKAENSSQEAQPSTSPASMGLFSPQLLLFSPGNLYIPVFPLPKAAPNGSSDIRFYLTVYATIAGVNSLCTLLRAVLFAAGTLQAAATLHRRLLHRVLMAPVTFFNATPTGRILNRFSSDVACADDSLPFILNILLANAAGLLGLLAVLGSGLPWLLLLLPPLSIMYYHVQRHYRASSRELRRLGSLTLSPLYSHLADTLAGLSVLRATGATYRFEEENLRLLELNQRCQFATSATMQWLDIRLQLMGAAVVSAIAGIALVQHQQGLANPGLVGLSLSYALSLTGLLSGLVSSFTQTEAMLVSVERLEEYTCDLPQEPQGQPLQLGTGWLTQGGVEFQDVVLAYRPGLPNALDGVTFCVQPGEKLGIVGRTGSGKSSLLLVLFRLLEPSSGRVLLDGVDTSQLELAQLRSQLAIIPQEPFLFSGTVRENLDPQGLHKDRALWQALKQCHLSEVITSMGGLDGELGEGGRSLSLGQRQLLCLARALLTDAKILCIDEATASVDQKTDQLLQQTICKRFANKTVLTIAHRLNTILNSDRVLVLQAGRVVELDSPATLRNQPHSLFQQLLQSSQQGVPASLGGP
UniProt Q8IZY2: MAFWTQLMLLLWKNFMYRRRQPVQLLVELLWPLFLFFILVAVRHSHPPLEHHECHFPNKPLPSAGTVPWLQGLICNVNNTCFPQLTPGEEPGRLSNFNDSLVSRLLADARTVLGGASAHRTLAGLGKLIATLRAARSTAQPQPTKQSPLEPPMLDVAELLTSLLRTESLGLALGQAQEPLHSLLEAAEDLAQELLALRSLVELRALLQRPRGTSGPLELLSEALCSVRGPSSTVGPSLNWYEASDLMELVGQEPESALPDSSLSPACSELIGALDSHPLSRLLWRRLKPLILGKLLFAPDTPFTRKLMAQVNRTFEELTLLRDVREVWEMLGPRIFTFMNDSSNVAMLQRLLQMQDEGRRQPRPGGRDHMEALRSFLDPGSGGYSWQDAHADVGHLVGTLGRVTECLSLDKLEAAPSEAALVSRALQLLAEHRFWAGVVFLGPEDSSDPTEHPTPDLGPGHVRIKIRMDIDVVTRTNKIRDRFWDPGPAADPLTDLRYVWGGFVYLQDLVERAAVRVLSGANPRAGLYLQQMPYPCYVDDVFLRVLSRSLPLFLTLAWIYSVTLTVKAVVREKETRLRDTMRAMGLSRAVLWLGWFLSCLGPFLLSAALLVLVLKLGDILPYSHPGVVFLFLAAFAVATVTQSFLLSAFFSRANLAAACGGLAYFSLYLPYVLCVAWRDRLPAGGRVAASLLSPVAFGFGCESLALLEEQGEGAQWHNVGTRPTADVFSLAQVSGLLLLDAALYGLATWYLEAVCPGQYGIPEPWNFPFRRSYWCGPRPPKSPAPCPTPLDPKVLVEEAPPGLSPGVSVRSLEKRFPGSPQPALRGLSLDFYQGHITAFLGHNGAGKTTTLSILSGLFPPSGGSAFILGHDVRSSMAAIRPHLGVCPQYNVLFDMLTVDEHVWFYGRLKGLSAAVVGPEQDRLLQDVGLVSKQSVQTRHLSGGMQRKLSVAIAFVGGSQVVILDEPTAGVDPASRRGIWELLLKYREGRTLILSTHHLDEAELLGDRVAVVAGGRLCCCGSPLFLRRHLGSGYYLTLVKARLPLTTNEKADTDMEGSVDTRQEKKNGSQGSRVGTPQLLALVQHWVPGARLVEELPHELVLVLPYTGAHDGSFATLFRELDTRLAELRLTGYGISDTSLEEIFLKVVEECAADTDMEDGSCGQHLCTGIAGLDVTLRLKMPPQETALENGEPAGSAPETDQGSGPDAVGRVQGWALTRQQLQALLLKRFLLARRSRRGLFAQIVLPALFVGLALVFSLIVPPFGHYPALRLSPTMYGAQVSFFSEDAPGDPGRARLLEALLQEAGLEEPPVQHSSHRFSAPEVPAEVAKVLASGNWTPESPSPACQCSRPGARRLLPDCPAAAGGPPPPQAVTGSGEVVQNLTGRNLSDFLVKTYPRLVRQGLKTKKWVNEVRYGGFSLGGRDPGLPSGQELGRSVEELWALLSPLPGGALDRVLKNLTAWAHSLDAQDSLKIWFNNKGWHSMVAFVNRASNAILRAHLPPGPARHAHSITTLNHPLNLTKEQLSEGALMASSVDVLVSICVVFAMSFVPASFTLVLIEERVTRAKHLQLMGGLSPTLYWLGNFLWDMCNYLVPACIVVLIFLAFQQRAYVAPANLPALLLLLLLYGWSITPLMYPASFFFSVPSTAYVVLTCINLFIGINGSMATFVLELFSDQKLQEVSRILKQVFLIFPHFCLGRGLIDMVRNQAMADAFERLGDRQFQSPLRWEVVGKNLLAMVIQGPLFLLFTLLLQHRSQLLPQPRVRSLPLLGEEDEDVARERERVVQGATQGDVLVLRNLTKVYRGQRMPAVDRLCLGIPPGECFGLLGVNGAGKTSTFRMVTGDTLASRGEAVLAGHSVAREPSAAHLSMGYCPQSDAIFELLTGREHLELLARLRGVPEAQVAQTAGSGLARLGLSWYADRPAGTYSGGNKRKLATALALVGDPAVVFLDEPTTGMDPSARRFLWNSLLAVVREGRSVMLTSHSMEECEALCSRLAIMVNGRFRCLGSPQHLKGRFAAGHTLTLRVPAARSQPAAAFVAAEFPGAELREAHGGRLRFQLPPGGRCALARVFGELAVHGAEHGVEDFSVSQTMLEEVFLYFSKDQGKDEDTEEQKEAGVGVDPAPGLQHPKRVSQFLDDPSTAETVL

[2] = compound: c1ccc([C@@H]2C[C@H]2NC2CCNCC2)cc1
Method in brief: as §1

[3] = compound: C1=CC=C(C=C1)[C@H](COC2=CC3=C(C=C2)NC(=O)N3)NC(=O)C4=CC=CN(C4=O)CC5=CC(=C(C=C5)F)F
Method in brief: as §1

[4] = compound: CC1=C(SC2=C1C(=N[C@H](C3=NN=C(N32)C)CC(=O)N)C4=CC=C(C=C4)Cl)C
Method in brief: as §1

[5] = compound: CC1=C2C(=CC=C1)N=C(N(C2=O)C3=CC=CC=C3C)CN4C=NC5=C(N=CN=C54)N
Method in brief: as §1

Measured: log2 fold change

ACAD10 isoform 5 (UniProt Q6JQN1)
inactive: [1] -0.019 | [2] 0.017

ACACA isoform 4 (UniProt Q13085)
inactive: [3] 0.001 | [4] 0.027 | [5] 0.019 | [1] 0.027 | [2] 0.085

ACAT1 (UniProt P24752)
inactive: [3] -0.007 | [4] 0.029 | [5] -0.016 | [1] 0.031 | [2] 0.024

ACAT1, A0A5F9ZHJ0
inactive: [2] -0.06

ABCA4 (UniProt P78363)
inactive: [3] 0.003 | [4] 0.027 | [5] 0.002 | [1] -0.108 | [2] -0.11

ABCE1 (UniProt H0Y990)
inactive: [3] 0.01 | [4] 0.145 | [5] -0.007 | [2] -0.025

ACBD6 (UniProt Q9BR61)
inactive: [3] 0.014 | [4] 0.019 | [5] -0.009 | [1] -0.045 | [2] -0.022

ACAP2 (UniProt Q15057)
inactive: [3] 0.007 | [4] 0.011 | [5] 0.021 | [1] 0 | [2] 0.026

ABTB2 (UniProt Q8N961)
inactive: [3] -0.162 | [4] 0.228 | [2] 0.139

ABCC10 (UniProt Q5T3U5)
inactive: [1] 0.068 | [2] 0.042

ACBD5 (UniProt Q5T8D3)
inactive: [1] -0.108 | [2] 0.07

ABI1 isoform 9 (UniProt Q8IZP0)
inactive: [3] -0.013 | [4] -0.008 | [5] -0.006 | [1] -0.004 | [2] -0.117

AARSD1 (UniProt Q9BTE6)
inactive: [3] -0.004 | [4] 0.069 | [1] -0.074 | [2] -0.399

ABCA7 (UniProt Q8IZY2)
inactive: [1] 0.004

ABHD4 (UniProt Q8TB40)
inactive: [5] -0.127

A2ML1 (UniProt A8K2U0)
inactive: [3] -0.237 | [4] 0.105 | [2] -0.079

ABCA8 isoform 3 (UniProt O94911)
inactive: [2] 0.024

ABCG2 (UniProt Q9UNQ0)
inactive: [2] -0.115

Quoted from the entries so far (5 entries):
ACACA isoform 4 (UniProt Q13085)
inactive: [3] 0.001 | [4] 0.027 | [5] 0.019 | [1] 0.027 | [2] 0.085

ACAT1 (UniProt P24752)
inactive: [3] -0.007 | [4] 0.029 | [5] -0.016 | [1] 0.031 | [2] 0.024

ACAT1, A0A5F9ZHJ0
inactive: [2] -0.06

ABCA4 (UniProt P78363)
inactive: [3] 0.003 | [4] 0.027 | [5] 0.002 | [1] -0.108 | [2] -0.11

ABCE1 (UniProt H0Y990)
inactive: [3] 0.01 | [4] 0.145 | [5] -0.007 | [2] -0.025

Further results

A0A494C071, A0A494C071
inactive: [3] -0.13 | [4] -0.037 | [1] -0.094 | [2] -0.14
